In PubChem BioAssay AID256 (DTP/NCI, 2004):
The list shows only some results of the screen, not a fair sample: its compounds were picked by chemical class. Other doses and runs of a compound may be missing. T/C gives the treated animals as a percentage of the vehicle group. Some doses have a count of surviving animals in place of a T/C: the source files T/C as zero there, which appears to mark a toxic dose or a test without result, not a measured value. Some doses without a T/C left all or most animals alive at the check, yet need not have been tolerated: survival well below the control is almost never listed, so the zero probably covers shortened survival too. Counts of survivors are from the toxicity check (mostly the fifth day) where no day follows; animals may have died later. Schedule codes are those of the source, read here as Q, the interval in days (D) or hours (H), X, the number of doses. Some entries were tested several times; the values are given in rising order. For survival time, the PubChem record calls one and a half times the control and up active, and a quarter to a half above the control has no call in these data; cut-offs in other NCI protocols can differ. Some T/C values carry the count of animals alive at the toxicity check (mostly the fifth day); where neither a count nor a note follows, no animal had died by that day. Some metal complexes and salts are drawn in pieces, as in the source, so charges may not balance.

System: CD2F1 mice, L1210 leukemia ip, survival T/C
Assay: NCI In Vivo Anticancer Drug Screen. Data for tumor model L1210 Leukemia (intraperitoneal) in CD2F1 (CDF1) mice
Details: higher T/C = longer survival
How it was run: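 Mice carrying a transplanted tumor received test compound or vehicle alone. The value is the measurement in the treated group divided by that in the vehicle-treated control group.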

[1] = T/C endpoint: mean survival time, dose: 12.5 mg/kg/injection, schedule: Q01DX001 (ip), vehicle: DMSO
[2] = T/C endpoint: mean survival time, dose: 50.0 mg/kg/injection, schedule: Q01DX001 (ip), vehicle: DMSO
[3] = T/C endpoint: mean survival time, dose: 100.0 mg/kg/injection, schedule: Q01DX001 (ip), vehicle: DMSO
[4] = T/C endpoint: mean survival time, dose: 200.0 mg/kg/injection, schedule: Q01DX001 (ip), vehicle: DMSO
[5] = T/C endpoint: mean survival time, dose: 400.0 mg/kg/injection, schedule: Q01DX001 (ip), vehicle: DMSO

For `CC(O)CCOP(=O)(N(CCCl)CCCl)N1CC1` (stereo unspecified), the T/C [1] was 140 % of control, the T/C (T/C endpoint: mean survival time, dose: 25.0 mg/kg/injection, schedule: Q01DX001 (ip), vehicle: DMSO, evaluated on day 35) was 164 % of control and the T/C (T/C endpoint: mean survival time, dose: 25.0 mg/kg/injection, schedule: Q01DX001 (ip), vehicle: DMSO, evaluated on day 45) was 125 % of control. The T/C [2] was 180 % of control, the survivor count [2] was 2 of 6 and the survivor count [3] was 0 of 6 and 2 of 6. The survivor count [4] was 0 of 6 and 2 of 6 and the survivor count [5] was 0 of 6.
In the case of `COc1ccc(O)c2c(=O)c3c(OC)cc4c(c3oc12)[C@@H]1C=CO[C@@H]1O4`, the T/C (T/C endpoint: mean survival time, dose: 25.0 mg/kg/injection, schedule: Q01DX009 (ip), vehicle: saline with Tween-80) is reported as 159 % of control, the T/C (T/C endpoint: mean survival time, dose: 50.0 mg/kg/injection, schedule: Q01DX009 (ip), vehicle: saline with Tween-80) is reported as 162 % of control and the T/C (T/C endpoint: mean survival time, dose: 100.0 mg/kg/injection, schedule: Q01DX009 (ip), vehicle: saline with Tween-80) is reported as 115 % of control.
With `O=C1C(O)=C([N+](=O)[O-])C(=O)C(O)=C1[N+](=O)[O-]` the T/C (T/C endpoint: mean survival time, dose: 100.0 mg/kg/injection, schedule: Q01DX009 (ip), vehicle: saline) was 100 % of control, the T/C (T/C endpoint: mean survival time, dose: 200.0 mg/kg/injection, schedule: Q01DX009 (ip), vehicle: saline) was 107 % of control and the T/C (T/C endpoint: mean survival time, dose: 400.0 mg/kg/injection, schedule: Q01DX009 (ip), vehicle: saline) was 97 % of control [4 of 6 alive].
In the case of `Cc1nc(N)[nH]c(=O)c1CCCNc1cccnc1.O=[N+]([O-])c1cc([N+](=O)[O-])c(O)c([N+](=O)[O-])c1`, the T/C (T/C endpoint: mean survival time, dose: 12.5 mg/kg/injection, schedule: Q01DX001 (ip), vehicle: saline with Tween-80) is reported as 103 % of control, the T/C (T/C endpoint: mean survival time, dose: 25.0 mg/kg/injection, schedule: Q01DX001 (ip), vehicle: saline with Tween-80) is reported as 87 % of control and the T/C (T/C endpoint: mean survival time, dose: 50.0 mg/kg/injection, schedule: Q01DX001 (ip), vehicle: saline with Tween-80) is reported as 95 % of control.
`[N-]=[N+]=NCC(O)CN=[N+]=[N-]` (stereo unspecified) was tested, and the survivor count (T/C endpoint: mean survival time, dose: 75.0 mg/kg/injection, schedule: Q01DX009 (ip), vehicle: saline with Tween-80) was 4 of 6, the survivor count (T/C endpoint: mean survival time, dose: 150.0 mg/kg/injection, schedule: Q01DX009 (ip), vehicle: saline with Tween-80) was 0 of 6 and the survivor count (T/C endpoint: mean survival time, dose: 300.0 mg/kg/injection, schedule: Q01DX009 (ip), vehicle: saline with Tween-80) was 0 of 6.
`CCNC(=O)O[C@@H]1CC[N+]2([O-])CC=C(COC(=O)C(O)(CC)c3ccc(Cl)cc3)C12` (stereo partly specified) was tested, and the T/C (T/C endpoint: median survival time, dose: 6.25 mg/kg/injection, schedule: Q01DX005 (ip), vehicle: saline) was 104 % of control, the T/C (T/C endpoint: median survival time, dose: 12.5 mg/kg/injection, schedule: Q01DX005 (ip), vehicle: saline) was 108 % of control and the T/C (T/C endpoint: median survival time, dose: 25.0 mg/kg/injection, schedule: Q01DX005 (ip), vehicle: saline) was 110 % of control. For the same compound, the T/C (T/C endpoint: median survival time, dose: 50.0 mg/kg/injection, schedule: Q01DX005 (ip), vehicle: saline) was 115 % of control and the T/C (T/C endpoint: median survival time, dose: 100.0 mg/kg/injection, schedule: Q01DX005 (ip), vehicle: saline) was 146 % of control.
`CS(=O)(=O)OCCCOP(N)(=O)N(CCCl)CCCl` (stereo unspecified) was tested, and the T/C (T/C endpoint: mean survival time, dose: 25.0 mg/kg/injection, schedule: Q01DX001 (ip), vehicle: DMSO) was 101 % of control, the T/C [2] was 95 % of control and the T/C [3] was 101 % of control. The T/C [4] was 95 % of control and the T/C [5] was 107 % of control.
With `C1CCC(C2CCCC[N-]2)[N-]C1.[N-]=[N+]=N.[N-]=[N+]=N.[Pd]` (stereo unspecified) the T/C (T/C endpoint: mean survival time, dose: 3.13 mg/kg/injection, schedule: Q04DX003 (ip), vehicle: distilled water + Tween-80) was 103 % of control, the T/C (T/C endpoint: mean survival time, dose: 6.25 mg/kg/injection, schedule: Q04DX003 (ip), vehicle: distilled water + Tween-80) was 103 % of control and the T/C (T/C endpoint: mean survival time, dose: 12.5 mg/kg/injection, schedule: Q04DX003 (ip), vehicle: distilled water + Tween-80) was 96 % of control. The T/C (T/C endpoint: mean survival time, dose: 25.0 mg/kg/injection, schedule: Q04DX003 (ip), vehicle: distilled water + Tween-80) was 93 % of control, the T/C (T/C endpoint: mean survival time, dose: 50.0 mg/kg/injection, schedule: Q04DX003 (ip), vehicle: distilled water + Tween-80) was 96 % of control and the T/C (T/C endpoint: mean survival time, dose: 100.0 mg/kg/injection, schedule: Q04DX003 (ip), vehicle: distilled water + Tween-80) was 96 % of control. For the same compound, the T/C (T/C endpoint: mean survival time, dose: 200.0 mg/kg/injection, schedule: Q04DX003 (ip), vehicle: distilled water + Tween-80) was 96 % of control.
For `ClP1(Cl)=NP(Cl)(Cl)=NP2(=N1)NCCO2` (stereo unspecified), the T/C (T/C endpoint: mean survival time, dose: 75.0 mg/kg/injection, schedule: Q01DX001 (ip), vehicle: saline) was 106 % of control, the T/C (T/C endpoint: mean survival time, dose: 150.0 mg/kg/injection, schedule: Q01DX001 (ip), vehicle: saline) was 101 % of control and the T/C (T/C endpoint: mean survival time, dose: 300.0 mg/kg/injection, schedule: Q01DX001 (ip), vehicle: saline) was 93 % of control [4 of 6 alive].
For `C1CN1.NC(CO)C(=O)O` (stereo unspecified), the T/C (T/C endpoint: mean survival time, dose: 20.0 mg/kg/injection, schedule: Q01DX001 (ip), vehicle: saline) was 109 % of control and the T/C (T/C endpoint: mean survival time, dose: 40.0 mg/kg/injection, schedule: Q01DX001 (ip), vehicle: saline) was 97 % of control.
With `O=[As](O)(c1ccc(Cl)cc1)C1CCCCC1O` (stereo unspecified) the T/C (T/C endpoint: mean survival time, dose: 6.25 mg/kg/injection, schedule: Q04DX003 (ip), vehicle: saline) was 98 % of control, the T/C (T/C endpoint: mean survival time, dose: 12.5 mg/kg/injection, schedule: Q04DX003 (ip), vehicle: saline) was 101 % of control and the T/C (T/C endpoint: mean survival time, dose: 25.0 mg/kg/injection, schedule: Q04DX003 (ip), vehicle: saline) was 118 % of control.
`CC(=O)CCOP(N)(=O)N(CCCl)CCCl` (stereo unspecified) was tested, and the T/C (T/C endpoint: mean survival time, dose: 6.25 mg/kg/injection, schedule: Q01DX001 (ip), vehicle: DMSO) was 108 % of control, the T/C [1] was 120 % of control and the T/C (T/C endpoint: mean survival time, dose: 25.0 mg/kg/injection, schedule: Q01DX001 (ip), vehicle: DMSO, evaluated on day 30) was 134 % of control. For the same compound, the T/C (T/C endpoint: mean survival time, dose: 25.0 mg/kg/injection, schedule: Q01DX001 (ip), vehicle: DMSO, evaluated on day 60) was 128 % of control, the T/C (T/C endpoint: mean survival time, dose: 50.0 mg/kg/injection, schedule: Q01DX001 (ip), vehicle: DMSO, evaluated on day 30) was 138 % of control and the T/C (T/C endpoint: mean survival time, dose: 50.0 mg/kg/injection, schedule: Q01DX001 (ip), vehicle: DMSO, evaluated on day 60) was 136 % of control. The T/C (T/C endpoint: mean survival time, dose: 100.0 mg/kg/injection, schedule: Q01DX001 (ip), vehicle: DMSO, evaluated on day 30) was 91 % of control [5 of 6 alive], the T/C (T/C endpoint: mean survival time, dose: 100.0 mg/kg/injection, schedule: Q01DX001 (ip), vehicle: DMSO, evaluated on day 60) was 96 % of control and the survivor count [4] was 5 of 6. The survivor count [5] was 2 of 6.
For `CCNP(=O)(OCCC=O)N(CCCl)CCCl` (stereo unspecified), the T/C (T/C endpoint: mean survival time, dose: 125.0 mg/kg/injection, schedule: Q01DX001 (ip), vehicle: DMSO) was 109 % of control, the T/C (T/C endpoint: mean survival time, dose: 250.0 mg/kg/injection, schedule: Q01DX001 (ip), vehicle: DMSO) was 112 % of control and the T/C (T/C endpoint: mean survival time, dose: 266.0 mg/kg/injection, schedule: Q01DX001 (ip), vehicle: DMSO) was 98 % of control. For the same compound, the T/C [5] was 97 % of control, the T/C (T/C endpoint: mean survival time, dose: 500.0 mg/kg/injection, schedule: Q01DX001 (ip), vehicle: DMSO) was 125 % of control and the T/C (T/C endpoint: mean survival time, dose: 600.0 mg/kg/injection, schedule: Q01DX001 (ip), vehicle: DMSO) was 106 % of control. The survivor count (T/C endpoint: mean survival time, dose: 900.0 mg/kg/injection, schedule: Q01DX001 (ip), vehicle: DMSO) was 2 of 6.
In the case of `CC1C[P+](c2ccccc2)(c2ccccc2)Cc2ccccc21.F[P-](F)(F)(F)(F)F` (stereo unspecified), the T/C (T/C endpoint: mean survival time, dose: 6.25 mg/kg/injection, schedule: Q04DX003 (ip), vehicle: saline with Tween-80) is reported as 117 % of control, the T/C (T/C endpoint: mean survival time, dose: 12.5 mg/kg/injection, schedule: Q04DX003 (ip), vehicle: saline with Tween-80) is reported as 98 % of control and the survivor count (T/C endpoint: mean survival time, dose: 25.0 mg/kg/injection, schedule: Q04DX003 (ip), vehicle: saline with Tween-80) is reported as 2 of 3. The survivor count (T/C endpoint: mean survival time, dose: 100.0 mg/kg/injection, schedule: Q04DX003 (ip), vehicle: saline with Tween-80) was 0 of 3, the survivor count (T/C endpoint: mean survival time, dose: 200.0 mg/kg/injection, schedule: Q04DX003 (ip), vehicle: saline with Tween-80) was 0 of 3 and the survivor count (T/C endpoint: mean survival time, dose: 400.0 mg/kg/injection, schedule: Q04DX003 (ip), vehicle: saline with Tween-80) was 0 of 3.
In the case of `NC(CC(=O)NCc1ccc(S(=O)(=O)F)cc1)C(=O)O` (stereo unspecified), the T/C (T/C endpoint: mean survival time, dose: 50.0 mg/kg/injection, schedule: Q01DX009 (ip), vehicle: Klucel (hydroxypropylcellulose) (HPC)) is reported as 108 % of control, the T/C (T/C endpoint: mean survival time, dose: 100.0 mg/kg/injection, schedule: Q01DX009 (ip), vehicle: Klucel (hydroxypropylcellulose) (HPC)) is reported as 94 % of control and the T/C (T/C endpoint: mean survival time, dose: 200.0 mg/kg/injection, schedule: Q01DX009 (ip), vehicle: Klucel (hydroxypropylcellulose) (HPC)) is reported as 96 % of control.
